Data from patent publication US20130287684A1 (SYMPHOGEN A S, published 2013).
Where a chain is given by its changes, count along the chain named. These are yes or no findings as the source states them, for the method shown. Some binding calls cover weakened binding; strength is not graded here. Values belong to the binder of their own block, whether it stands above or below them.

The chains behind the UniProt entries cited, without tags or fusion partners. Residues count along the entry.
UniProt Q61526, residues 20-641: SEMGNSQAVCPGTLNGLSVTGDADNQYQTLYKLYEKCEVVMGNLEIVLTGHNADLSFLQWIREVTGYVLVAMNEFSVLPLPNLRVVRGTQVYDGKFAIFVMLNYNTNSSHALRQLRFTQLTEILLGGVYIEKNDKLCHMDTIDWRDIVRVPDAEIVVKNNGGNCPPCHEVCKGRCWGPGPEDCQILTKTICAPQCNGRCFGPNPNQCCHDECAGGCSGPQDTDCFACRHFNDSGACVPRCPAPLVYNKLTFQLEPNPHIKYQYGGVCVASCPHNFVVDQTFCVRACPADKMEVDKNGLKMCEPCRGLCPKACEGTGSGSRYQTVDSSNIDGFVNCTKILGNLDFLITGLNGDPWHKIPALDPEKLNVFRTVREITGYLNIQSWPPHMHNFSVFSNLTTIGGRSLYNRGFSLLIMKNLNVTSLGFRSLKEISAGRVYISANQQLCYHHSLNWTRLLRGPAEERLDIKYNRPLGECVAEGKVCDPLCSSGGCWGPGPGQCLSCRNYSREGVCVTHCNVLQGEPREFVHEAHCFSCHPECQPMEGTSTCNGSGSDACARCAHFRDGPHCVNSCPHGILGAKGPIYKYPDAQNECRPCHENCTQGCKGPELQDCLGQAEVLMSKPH

Experiments:
[1] = target: murine HER3 ECD construct with N-terminal histidine tag (murine) (UniProt Q61526); experiment: ELISA of Example 11, retold in Example 12
[2] = target: murine HER3 ECD construct with N-terminal histidine tag (murine) (UniProt Q61526); experiment: ELISA, antibody titrated on coated His-tagged HER3 ECD construct (1 µg/ml), anti-human IgG Fc-HRP
[3] = target: murine HER3 ECD construct with N-terminal histidine tag (murine) (UniProt Q61526); experiment: ELISA on coated His-tagged HER3 ECD constructs

binding [1]: binds
binding [2]: binds
binding [3]: binds
B1: antibody 5101 (antibody, human IgG1, kappa, V domains shown)
VH: EVKLVESGGGLVKPGGSLKLSCAASGFTFSSYGMSWVRQTPEKRLEWVATIRDGGGYTYYSDNVKGRFTISRDNAQNNLYLQMSHLKSEDTAMYYCARGILDYWGQGTSVTVSS
VL: QIVLTQSPSSLSASLGDRVTISCRASQDISNYLNWFQQRPDGTVKLLIYYTSRLHSGVPSRFSGSGSGTDYSLTISNLEQEDIATYFCQQGNTLPYTFGGGTKLELKR
notes: Chimeric: murine variable regions, human kappa constant region, expressed as full-length IgG

binding [1]: binds
binding [2]: binds
binding [3]: binds
B2: antibody 5106 (antibody, human IgG1, kappa, V domains shown)
VH: B1 VH with G10D, G16E, Y32F, G33A, R52S, G56S, Y57H, T58L, S61P, Q76K
VL: DIVMTQATSSLSASLGDRVTISCSASQDINNYLNWYQQKPDGTIKLLIYYTSSLHSGVPSRFSGSGSGTDYSLTISNLEPEDIATYYCQQYSRIPYTFGGGTKLEIKR
notes: as for B1
